From publication PMC4669748
No constants are given. Whether binding was seen depends on the method and setting. Binding can be weak; no strength is given. Tags and fused reporters may be left off the sequences shown.

Legend:
[1] = biological target: GST fused with truncated AKT: N-terminal domain (hosts the PH domain); assay: pull-down; GST pull-down with purified recombinant His-BTG3 and GST or GST fused with full-length or truncated AKT; both purified
[2] = biological target: GST fused with truncated AKT: core domain (central region, hosts the kinase domain); assay: as above

B1: His-tagged, full-length BTG3 protein (protein, UniProt Q14201 1-252)
chain: MKNEIAAVVFFFTRLVRKHDKLKKEAVERFAEKLTLILQEKYKNHWYPEKPSKGQAYRCIRVNKFQRVDPDVLKACENSCILYSDLGLPKELTLWVDPCEVCCRYGEKNNAFIVASFENKDENKDEISRKVTRALDKVTSDYHSGSSSSDEETSKEMEVKPSSVTAAASPVYQISELIFPPLPMWHPLPRKKPGMYRGNGHQNHYPPPVPFGYPNQGRKNKPYRPIPVTWVPPPGMHCDRNHWINPHMLAPH
[1]
  binding: binds
[2]
  binding: binds
